Results are given in words; binding and its absence hold for the method and conditions named. Some results given as binding are weak or reduced against the parent protein; the word gives no strength.
T1: human CD40L (human, UniProt P29965 113-261, limits assumed)
T1 sequence (looked up): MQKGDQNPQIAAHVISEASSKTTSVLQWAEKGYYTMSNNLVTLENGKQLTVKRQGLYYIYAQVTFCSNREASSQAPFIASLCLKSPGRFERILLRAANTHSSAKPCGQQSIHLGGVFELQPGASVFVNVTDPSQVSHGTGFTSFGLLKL


Key:
human CD40L [1] = target: T1, human CD40L; assay: ELISA, bacterial lysate on plate-bound human CD40L, anti-Myc tag detection
human CD40L [2] = target: T1, human CD40L; assay: hCD40L/HSA bridging ELISAs
human CD40L [3] = target: T1, human CD40L; assay: CD40L competitive ELISA against plate-coated rhCD40 Fc
human CD40L [4] = target: T1, human CD40L; assay: competitive ELISA: hCD40L (1 nM) premixed with the binder and added to plate-coated rhCD40 Fc; bound hCD40L detected with biotinylated anti-hCD40L polyclonal antibody
Procedure: To evaluate the avidity of the different formats, a CD40L competitive ELISA was performed. Briefly, the plates were coated with rhCD40 Fc at 1 μg/ml and incubated overnight at 4° C. The plates were washed twice with 150 μl of washing buffer (PBS, Tween 20 0.1%) with a plate washer and saturated with Casein 5% (Sigma) in PBS for 90 minutes at room temperature (25±1° C.). […] The resulting solution was then mixed and added to the plates. The plates were washed 3 times as described previously. […] The plates were incubated for 90 minutes at room temperature (25±1° C.). The plates were then washed. PolyHRP-Streptavidin was then diluted in dilution buffer and added to the plates. The plates were incubated an additional 90 minutes at room temperature (25±1° C.). Plates were washed 3 times as described previously and the substrate (TMB, Pierce Thermo-Scientific) was added in the plate for 10 minutes. The reaction was stopped using an acidic solution and the plates were read at 450-630 nm and the resulting percent inhibition was calculated.

human CD40L [5] = target: T1, human CD40L; assay: ELISA on plate-coated hCD40L, anti-cystatin detection, without or with HSA

binding (human CD40L [1]) | Binder | other results
binds | stefin A protein variant clone 288 (designed binder) MIPGGLSEAKPATPEIQEIVDKVKPQLEEKTGETYGKLEAVQYKTQVVYYKLVTWWRGTNYYIKVRAGDNKYMHLKVFKSLPDLNYEVTLEDLVLTGYQVDKNKDDELTGF | –
– | clone-230 XT75 (trimer with a rigid linker and an HSA binding stefin A protein variant) (designed binder, also called AFX01-230 XT75) IPGGLSEAKPATPEIQEIVDKVKPQLEEKTGETYGKLEAVQYKTQVVHYYVHYNDQGTNYYIKVRAGDNKYMHLKVFKSLWGENLFAKWEDLVLTGYQVDKNKDDELTGFAEAAAKEAAAKEAAAKEAAAKEAAAKEAAAKMIPGGLSEAKPATPEIQEIVDKVKPQLEEKTGETYGKLEAVQYKTQVVHYYVHYNDQGTNYYIKVRAGDNKYMHLKVFKSLWGENLFAKWEDLVLTGYQVDKNKDDELTGFAEAAAKEAAAKEAAAKEAAAKEAAAKEAAAKMIPGGLSEAKPATPEIQEIVDKVKPQLEEKTGETYGKLEAVQYKTQVVHYYVHYNDQGTNYYIKVRAGDNKYMHLKVFKSLWGENLFAKWEDLVLTGYQVDKNKDDELTGFAEAAAKEAAAKEAAAKEAAAKEAAAKEAAAKMIPRGLSEAKPATPEIQEIVDKVKPQLEEKTGETYGKLEAVQYKTQVLANFFQRRWPGSTNYYIKVRAGDNKYMHLKVFNGPWKFRNTDRGADRVLTGYQVDKNKDDELTGF | binding (human CD40L [2]): binds; binding (human CD40L [3]): binds; binding (human CD40L [4]): binds; binding (human CD40L [5]): binds
binds | stefin A protein variant clone 291 (designed binder) MIPGGLSEAKPATPEIQEIVDKVKPQLEEKTGETYGKLEAVQYKTQVVFNKDLFLGWGTNYYIKVRAGDNKYMHLKVFKSLRFSAGEEWEEDLVLTGYQVDKNKDDELTGF | –
binds | stefin A protein variant clone 295 (designed binder) MIPGGLSEAKPATPEIQEIVDKVKPQLEEKTGETYGKLEAVQYKTQVVREDLDLFYTGTNYYIKVRAGDNKYMHLKVFKSLEFILQPWWYEDLVLTGYQVDKNKDDELTGF | –
binds | stefin A protein variant clone 294 (designed binder) MIPGGLSEAKPATPEIQEIVDKVKPQLEEKTGETYGKLEAVQYKTQVVGNAAWGSFAGTNYYIKVRAGDNKYMHLKVFKSLPFFYRKDNPEDLVLTGYQVDKNKDDELTGF | –
binds | stefin A protein variant clone 290 (designed binder) MIPGGLSEAKPATPEIQEIVDKVKPQLEEKTGETYGKLEAVQYKTQVVQEYLWKQYIGTNYYIKVRAGDNKYMHLKVFKSLRWQYRHPQTEDLVLTGYQVDKNKDDELTGF | –
binds | stefin A protein variant clone 293 (designed binder) MIPGGLSEAKPATPEIQEIVDKVKPQLEEKTGETYGKLEAVQYKTQVVWYAWQEGWQGTNYYIKVRAGDNKYMHLKVFKSLFRKKWAQLWEDLVLTGYQVDKNKDDELTGF | –
binds | stefin A protein variant clone 280 (designed binder) MIPGGLSEAKPATPEIQEIVDKVKPQLEEKTGETYGKLEAVQYKTQVVQTKLVTWWWGTNYYIKVRAGDNKYMHLKVFKSLLGEQYIDVDEDLVLTGYQVDKNKDDELTGF | –
binds | stefin A protein variant clone 283 (designed binder) MIPGGLSEAKPATPEIQEIVDKVKPQLEEKTGETYGKLEAVQYKTQVVHVLKVSSVSGTNYYIKVRAGDNKYMHLKVFKSLFYYRKRYDREDLVLTGYQVDKNKDDELTGF | –
binds | stefin A protein variant clone 287 (designed binder) MIPGGLSEAKPATPEIQEIVDKVKPQLEEKTGETYGKLEAVQYKTQVVLEDEWWSILGTNYYIKVRAGDNKYMHLKVFKSLPDAPAYSKSEDLVLTGYQVDKNKDDELTGF | –
binds | stefin A protein variant clone 282 (designed binder) MIPGGLSEAKPATPEIQEIVDKVKPQLEEKTGETYGKLEAVQYKTQVVHVKIVTWWKGTNYYIKVRAGDNKYMHLKVFKSLYNPKPGIDNEDLVLTGYQVDKNKDDELTGF | –
– | clone-230 DT (trimer with a rigid linker) (designed binder) IPGGLSEAKPATPEIQEIVDKVKPQLEEKTGETYGKLEAVQYKTQVVHYYVHYNDQGTNYYIKVRAGDNKYMHLKVFKSLWGENLFAKWEDLVLTGYQVDKNKDDELTGFAEAAAKEAAAKEAAAKEAAAKEAAAKEAAAKMIPGGLSEAKPATPEIQEIVDKVKPQLEEKTGETYGKLEAVQYKTQVVHYYVHYNDQGTNYYIKVRAGDNKYMHLKVFKSLWGENLFAKWEDLVLTGYQVDKNKDDELTGFAEAAAKEAAAKEAAAKEAAAKEAAAKEAAAKMIPGGLSEAKPATPEIQEIVDKVKPQLEEKTGETYGKLEAVQYKTQVVHYYVHYNDQGTNYYIKVRAGDNKYMHLKVFKSLWGENLFAKWEDLVLTGYQVDKNKDDELTGF | binding (human CD40L [3]): binds; binding (human CD40L [4]): binds
binds | stefin A protein variant clone 292 (designed binder) MIPGGLSEAKPATPEIQEIVDKVKPQLEEKTGETYGKLEAVQYKTQVVHFGIRYAHVGTNYYIKVRAGDNKYMHLKVFKSLDYPRHHQDQEDLVLTGYQVDKNKDDELTGF | –
binds | stefin A protein variant clone 286 (designed binder) MIPGGLSEAKPATPEIQEIVDKVKPQLEEKTGETYGKLEAVQYKTQVVSWGKVSNELGTNYYIKVRAGDNKYMHLKVFKSLIEYQSPALYEDLVLTGYQVDKNKDDELTGF | –
– | clone-230 DS (tetramer with a rigid linker) (designed binder) IPGGLSEAKPATPEIQEIVDKVKPQLEEKTGETYGKLEAVQYKTQVVHYYVHYNDQGTNYYIKVRAGDNKYMHLKVFKSLWGENLFAKWEDLVLTGYQVDKNKDDELTGFAEAAAKEAAAKEAAAKEAAAKEAAAKEAAAKMIPGGLSEAKPATPEIQEIVDKVKPQLEEKTGETYGKLEAVQYKTQVVHYYVHYNDQGTNYYIKVRAGDNKYMHLKVFKSLWGENLFAKWEDLVLTGYQVDKNKDDELTGFAEAAAKEAAAKEAAAKEAAAKEAAAKEAAAKMIPGGLSEAKPATPEIQEIVDKVKPQLEEKTGETYGKLEAVQYKTQVVHYYVHYNDQGTNYYIKVRAGDNKYMHLKVFKSLWGENLFAKWEDLVLTGYQVDKNKDDELTGFAEAAAKEAAAKEAAAKEAAAKEAAAKEAAAKMIPGGLSEAKPATPEIQEIVDKVKPQLEEKTGETYGKLEAVQYKTQVVHYYVHYNDQGTNYYIKVRAGDNKYMHLKVFKSLWGENLFAKWEDLVLTGYQVDKNKDDELTGF | binding (human CD40L [3]): binds; binding (human CD40L [4]): binds
binds | stefin A protein variant clone 284 (designed binder) MIPGGLSEAKPATPEIQEIVDKVKPQLEEKTGETYGKLEAVQYKTQVVYQDYDSATHGTNYYIKVRAGDNKYMHLKVFKSLYQYRNPIDKEDLVLTGYQVDKNKDDELTGF | –
binds | stefin A protein variant clone 289 (designed binder) MIPGGLSEAKPATPEIQEIVDKVKPQLEEKTGETYGKLEAVQYKTQVVAWVKEHNLIGTNYYIKVRAGDNKYMHLKVFKSLYDQNQWSPHEDLVLTGYQVDKNKDDELTGF | –
binds | stefin A protein variant clone 281 (designed binder) MIPGGLSEAKPATPEIQEIVDKVKPQLEEKTGETYGKLEAVQYKTQVVAVFDYADPSGTNYYIKVRAGDNKYMHLKVFKSLPYRYRTHHKEDLVLTGYQVDKNKDDELTGF | –

Reference: US20260022160A1 (AFFYXELL THERAPEUTICS, published 2026)
